Values from PubChem BioAssay AID1224828 (NIAID, 2016)
Screen: 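Regulators linking TLR4 signalling to p65 nuclear translocation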 (primary screen). Cells: mouse RAW264.7 G9 macrophage reporter cells (GFP-p65, Tnf promoter-mCherry). Reagents: siRNA pool against mouse genes, 100 nM. Timing: 2 days siRNA transfection, then 40 min LPS before fixation. Treatment: LPS (Salmonella minnesota R595) at 10 ng/ml. Measured: 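Microscopy ratio of nuclear to perinuclear-ring GFP-p65 signal, scaled to the plate median; gene score is the average of two replicate robust z-scores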. Reading the numbers: p65 translocation robust z-score: higher = more nuclear NF-kappaB p65 after LPS than the plate median; nuclear/cytoplasmic p65 ratio: higher = more nuclear NF-kappaB p65. Rule for the call: 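Called active when z exceeds 3.3 or falls under -1.56 (median of Tlr4 controls), giving activity score of at least 50; no calls for control wells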. Calls: active = hit (p65 shift raised or lowered); inactive = no clear change.
Shown is one part, drawn at random, of about 17,000 reagents. 762 of all reagents (4.5%) count as active. 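Active calls include both raised and lowered p65 entry, mostly lowered; wells with fewer than 50 cells lack a z-score.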 The raw values are shown without normalisation. Entries without a mark were called inactive.

| gene | p65 translocation robust z-score | nuclear/cytoplasmic p65 ratio, rep 1 | nuclear/cytoplasmic p65 ratio, rep 2 | low cell count flag |
| --- | --- | --- | --- | --- |
| Crebrf (CREB3 regulatory factor) | – | 1.52 | 1.56 | fewer than 50 cells per well; well left out of scoring |
| Zscan5b (zinc finger and SCAN domain containing 5B) | 1.26 | 1.59 | 1.38 | enough cells to score |
| Itpa | -0.29 | 1.43 | 1.35 | enough cells to score |
| Zfp759 (zinc finger protein 759) | -1.26 | 1.48 | 1.53 | enough cells to score |
| Cmtm5 (CKLF-like MARVEL transmembrane domain containing 5) | 0.76 | 1.7 | 1.91 | enough cells to score |
| Ubxn1 (UBX domain protein 1) | -0.04 | 1.55 | 1.55 | enough cells to score |
| Rpl10a (ribosomal protein L10A) | – | 1.27 | 1.19 | fewer than 50 cells per well; well left out of scoring |
| Ccar1 (cell division cycle and apoptosis regulator 1) | 0.07 | 1.62 | 1.78 | enough cells to score |
| Or5m3b (olfactory receptor family 5 subfamily M member 3B) | 0.82 | 1.77 | 1.71 | enough cells to score |
| Sema5b | 0.24 | 1.44 | 1.28 | enough cells to score |
| Or52m1 (olfactory receptor family 52 subfamily M member 1) | – | 1.36 | 1.26 | fewer than 50 cells per well; well left out of scoring |
| AI837181 (expressed sequence AI837181) | 1.66 | 1.83 | 1.9 | enough cells to score |
| Suz12 (SUZ12 polycomb repressive complex 2 subunit) | 0.55 | 1.59 | 1.39 | enough cells to score |
| Peg12 (paternally expressed 12) | -1.39 | 1.17 | 1.16 | enough cells to score |
| Chic2 (cysteine-rich hydrophobic domain 2) | 0.03 | 1.46 | 1.38 | enough cells to score |
| Mgarp (mitochondria localized glutamic acid rich protein) | 0.84 | 1.29 | 1.48 | enough cells to score |
| Magea3 (MAGE family member A3) | 1.26 | 1.95 | 1.7 | enough cells to score |
| Ccer1 (coiled-coil glutamate-rich protein 1) | – | 1.51 | 1.23 | fewer than 50 cells per well; well left out of scoring |
| Senp5 (SUMO/sentrin specific peptidase 5) | -0.11 | 1.35 | 1.28 | enough cells to score |
| Gsto1 (glutathione S-transferase omega 1) | -0.45 | 1.3 | 1.39 | enough cells to score |
| Tbl1x (transducin beta like 1 X-linked) | -0.81 | 1.45 | 1.36 | enough cells to score |
| Snw1 (SNW domain containing 1) | 0.11 | 1.44 | 1.25 | enough cells to score |
| Klhl9 (kelch-like 9) | 0.61 | 1.51 | 1.59 | enough cells to score |
| Or5p76 (olfactory receptor family 5 subfamily P member 76) | -1.6 (active) | 1.23 | 1.24 | enough cells to score |
| Tceal9 (transcription elongation factor A like 9) | – | 1.29 | 1.09 | fewer than 50 cells per well; well left out of scoring |
| Bmpr1a (bone morphogenetic protein receptor, type 1A) | -0.21 | 1.5 | 1.48 | enough cells to score |
| Mettl28 (methyltransferase like 28) | 0.5 | 1.43 | 1.57 | enough cells to score |
| Ttc36 (tetratricopeptide repeat domain 36) | -0.63 | 1.48 | 1.74 | enough cells to score |
| Hrk | -0.17 | 1.61 | 1.57 | enough cells to score |
| Rufy3 (RUN and FYVE domain containing 3) | -2.14 (active) | 1.23 | 1.27 | enough cells to score |
| Tor1b (torsin family 1, member B) | 0.58 | 1.34 | 1.25 | enough cells to score |
| Lrrc3 (leucine rich repeat containing 3) | -1.29 | 1.52 | 1.31 | enough cells to score |
| Cenpb (centromere protein B) | -0.06 | 1.4 | 1.42 | enough cells to score |
| Ube3a (ubiquitin protein ligase E3A) | 0.99 | 1.62 | 1.67 | enough cells to score |
| Nop16 (NOP16 nucleolar protein) | -0.41 | 1.53 | 1.69 | enough cells to score |
| Gbp5 (guanylate binding protein 5) | -1.82 (active) | 1.37 | 1.17 | enough cells to score |
| Stard3 (StAR related lipid transfer domain containing 3) | 1.16 | 1.71 | 1.25 | enough cells to score |
| Cep55 (centrosomal protein 55) | -0.95 | 1.41 | 1.3 | enough cells to score |
| Wdr20rt (WD repeat domain 20, retrogene) | 0.08 | 1.44 | 1.24 | enough cells to score |
| Epha2 (Eph receptor A2) | 0.72 | 1.72 | 1.54 | enough cells to score |
